Measured values from PMC6180065, “Deciphering molecular details in the assembly of alpha-type carboxysome” (Scientific Reports, 2018).
No constants are given. Whether binding was seen depends on the method and setting. Binding seen in cells or lysates may run through a third protein. Some entries that bind do so weakly or less than the wild type. Where a sequence is shown, tags or fusion partners need not be part of it.

T1: CbbL(1–136) fused to the N terminus of MBP with a C-terminal 6xHis tag (Halothiobacillus neapolitan (ATCC 23641)) (UniProt O85040)
T1 sequence: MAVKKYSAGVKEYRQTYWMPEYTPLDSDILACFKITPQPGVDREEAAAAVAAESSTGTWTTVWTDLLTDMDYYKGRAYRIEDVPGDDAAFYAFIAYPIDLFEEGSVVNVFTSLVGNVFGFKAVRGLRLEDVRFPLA

T2: CbbL(1–100) fused to the N terminus of MBP with a C-terminal 6xHis tag (Halothiobacillus neapolitan (ATCC 23641)) (UniProt O85040)
T2 sequence: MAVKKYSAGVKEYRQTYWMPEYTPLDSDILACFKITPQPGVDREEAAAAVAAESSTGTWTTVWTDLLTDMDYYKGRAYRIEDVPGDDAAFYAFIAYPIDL

T3: CbbL(1–122) fused to the N terminus of MBP with a C-terminal 6xHis tag (Halothiobacillus neapolitan (ATCC 23641)) (UniProt O85040)
T3 sequence: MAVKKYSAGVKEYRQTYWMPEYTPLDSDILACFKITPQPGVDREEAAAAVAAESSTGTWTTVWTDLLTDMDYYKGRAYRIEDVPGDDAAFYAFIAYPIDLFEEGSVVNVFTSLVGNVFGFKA

T4: CbbL(1–73) fused to the N terminus of MBP with a C-terminal 6xHis tag (Halothiobacillus neapolitan (ATCC 23641)) (UniProt O85040)
T4 sequence: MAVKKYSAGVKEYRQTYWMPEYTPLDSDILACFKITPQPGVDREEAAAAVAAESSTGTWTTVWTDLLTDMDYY

T5: CbbL(N)-6xHis (Halothiobacillus neapolitan (ATCC 23641)) (UniProt O85040)
T5 sequence: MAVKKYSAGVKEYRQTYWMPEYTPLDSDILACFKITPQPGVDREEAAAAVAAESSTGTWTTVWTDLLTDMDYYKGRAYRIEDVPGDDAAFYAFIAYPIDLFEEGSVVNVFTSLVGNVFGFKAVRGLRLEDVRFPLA

T6: CbbL(N)-mCherry-6xHis (Halothiobacillus neapolitan (ATCC 23641)) (UniProt O85040)
T6 sequence: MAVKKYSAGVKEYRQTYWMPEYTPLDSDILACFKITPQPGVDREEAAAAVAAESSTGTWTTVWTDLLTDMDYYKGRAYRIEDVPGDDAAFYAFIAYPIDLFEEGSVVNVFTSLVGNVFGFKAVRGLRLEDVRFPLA


Tests used:
[1] = molecular target: T1, CbbL(1–136) fused to the N terminus of MBP with a C-terminal 6xHis tag (Halothiobacillus neapolitan (ATCC 23641)); assay: pull-down; truncated CbbL(N) segments fused to MBP-6xHis with CsoS1A or CsoS1C; ligand binding ratio by densitometry, as percentage of that of the entire N domain
[2] = molecular target: T2, CbbL(1–100) fused to the N terminus of MBP with a C-terminal 6xHis tag (Halothiobacillus neapolitan (ATCC 23641)); assay: as above
[3] = molecular target: T3, CbbL(1–122) fused to the N terminus of MBP with a C-terminal 6xHis tag (Halothiobacillus neapolitan (ATCC 23641)); assay: as above
[4] = molecular target: T4, CbbL(1–73) fused to the N terminus of MBP with a C-terminal 6xHis tag (Halothiobacillus neapolitan (ATCC 23641)); assay: as above
[5] = molecular target: T5, CbbL(N)-6xHis (Halothiobacillus neapolitan (ATCC 23641)); assay: pull-down; CbbL(N)-6xHis co-expressed in E. coli with each shell protein separately; Ni Sepharose, SDS-PAGE
[6] = molecular target: T6, CbbL(N)-mCherry-6xHis (Halothiobacillus neapolitan (ATCC 23641)); assay: pull-down; CbbL(N)-mCherry-6xHis co-expressed in E. coli with all shell proteins (CsoS1A/1B/1C/1D, CsoS4A/4B; plasmid pZS-23641-CsoS41); cell extract on Ni resin; additional SDS-PAGE band identified by proteomics analysis

| binding [1] | binding [2] | binding [3] | binding [4] | binding [5] | binding [6] | Binder |
| --- | --- | --- | --- | --- | --- | --- |
| binds | binds | binds | binds | binds | binds | CsoS1A (protein, UniProt P45689 1-98) MADVTGIALGMIETRGLVPAIEAADAMTKAAEVRLVGRQFVGGGYVTVLVRGETGAVNAAVRAGADACERVGDGLVAAHIIARVHSEVENILPKAPQA |
| binds | binds | binds | binds | binds | binds | CsoS1C-6xHis (natural protein, Halothiobacillus neapolitan (ATCC 23641), Carboxysome shell protein CsoS1C of Halothiobacillus neapolitan (ATCC 23641); printed length 98 a.a; not measured in the assay) MAAVTGIALGMIETRGLVPAIEAADAMTKAAEVRLVGRQFVGGGYVTVLVRGETGAVNAAVRAGADACERVGDGLVAAHIIARVHSEVENILPKAPEA |
| – | – | – | – | binds | – | CsoS1B (protein, UniProt P45690 1-110) MATTHGIALGMIETRGLVPAIEAADAMTKAAEVRLVGRSFVGGGYVTVMVRGETGAVNAAVRAGADACERVGDGLVAAHIIARVHSEVEIILPETPEDSDSAWCIANLNS |
